PubChem BioAssay AID1259254 | NCATS | 2017

Aim: 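Genome-wide screen for genes that prevent DNA re-replication in cancer cells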 (primary screen)
Cells: human HCT116 colorectal cancer cells
Knock-down reagent: single siRNA against human genes
Duration: 3 days
Read-out: 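Nuclei stained with Hoechst and imaged; cell-cycle phase assigned by DNA content; G2 share scaled per plate, non-targeting siRNA 0%, GMNN siRNA 100%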
Scale: G2 robust z-score and G2 cells, % of GMNN control: higher = more G2 cells, more excess DNA replication; raw share of cells in G2: higher = larger share of cells with G2 DNA content
Hit rule: 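An siRNA counts as active if its G2 robust z-score lies at least 5 MADs above the screen median; here such calls match roughly 38% of GMNN control or more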
This is an unselected part of about 59,000 reagents tested. About 1,550 of all reagents (2.6%) were called active. 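G2 share is only a proxy for re-replication; each gene was hit by three separate siRNAs, and active genes were retested.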 Raw values vary from plate to plate and are shown uncorrected. A number with no mark means an inactive call. Reagents against one gene are numbered here. The record does not give: the amount of reagent.

gene symbol | siRNA no. | G2 robust z-score | G2 cells, % of GMNN control | raw share of cells in G2 (%)
ZSCAN16 | 1 | -0.486 | -0.453 | 4.03
ZSCAN16 | 2 | 0.206 | 4.41 | 7.27
ZSCAN16 | 3 | 0.0951 | 3.64 | 6.13
GIT2 | 1 | 0.177 | 4.21 | 6.46
GIT2 | 2 | 0.597 | 7.17 | 7.91
GIT2 | 3 | -0.719 | -2.09 | 2.49
ZFP1 | 1 | 0.818 | 8.72 | 6.09
ZFP1 | 2 | 1.7 | 15 | 8.36
ZFP1 | 3 | -0.679 | -1.81 | 2.89
TPTE2P1 | 1 | 1.14 | 11 | 7.93
TPTE2P1 | 2 | 0.346 | 5.4 | 5.23
TPTE2P1 | 3 | -0.00818 | 2.91 | 3.97
OCIAD2 | 1 | 0.927 | 9.49 | 6.02
OCIAD2 | 2 | -0.335 | 0.613 | 4.41
OCIAD2 | 3 | 2.08 | 17.6 | 8.68
TUBD1 | 1 | 2.48 | 20.4 | 15.2
TUBD1 | 2 | -0.237 | 1.3 | 4.72
TUBD1 | 3 | -0.725 | -2.14 | 2.98
RAB20 | 1 | -0.999 | -4.06 | 2.64
RAB20 | 2 | -0.165 | 1.8 | 7.22
RAB20 | 3 | 1.63 | 14.4 | 9.61

3 entries from above, ordered by “raw share of cells in G2 (%)”, lowest first:
gene symbol | siRNA no. | G2 robust z-score | G2 cells, % of GMNN control | raw share of cells in G2 (%)
TPTE2P1 | 3 | -0.00818 | 2.91 | 3.97
OCIAD2 | 2 | -0.335 | 0.613 | 4.41
OCIAD2 | 1 | 0.927 | 9.49 | 6.02

The listing continues.
gene symbol | siRNA no. | G2 robust z-score | G2 cells, % of GMNN control | raw share of cells in G2 (%)
ZPR1 | 1 | 1.7 | 14.9 | 11.8
ZPR1 | 2 | -0.739 | -2.23 | 3.01
ZPR1 | 3 | 0.557 | 6.89 | 5.78
NKX3-1 | 1 | -0.446 | -0.173 | 4.9
NKX3-1 | 2 | -0.845 | -2.98 | 3.05
NKX3-1 | 3 | -0.851 | -3.02 | 2.26
ZNF322P1 | 1 | 1.16 | 11.2 | 6.93
ZNF322P1 | 2 | -0.617 | -1.37 | 2.69
ZNF322P1 | 3 | 2.3 | 19.1 | 10.2
SGCG | 1 | -0.505 | -0.586 | 4.35
SGCG | 2 | 3.45 | 27.3 | 14.9
SGCG | 3 | -0.397 | 0.175 | 4.02
CCDC59 | 1 | 1.06 | 10.4 | 6.53
CCDC59 | 2 | -0.385 | 0.256 | 3.95
CCDC59 | 3 | 0.691 | 7.83 | 7.51
ABHD14A | 1 | 2.16 | 18.1 | 11.2
ABHD14A | 2 | -0.0417 | 2.67 | 5.1
ABHD14A | 3 | -0.58 | -1.11 | 2.91
ANK2 | 1 | -0.375 | 0.326 | 4.11
ANK2 | 2 | -1.1 | -4.8 | 3.36
ANK2 | 3 | 1.15 | 11 | 8.47
CSNK1G2-AS1 | 1 | 0.173 | 4.18 | 5.09
CSNK1G2-AS1 | 2 | -0.612 | -1.34 | 2.67
CSNK1G2-AS1 | 3 | -0.302 | 0.843 | 3.46
ATP6V1B2 | 1 | -0.792 | -2.61 | 4.34
ATP6V1B2 | 2 | -0.506 | -0.595 | 4.58
ATP6V1B2 | 3 | -0.906 | -3.4 | 3.05
